In paper PMC4954646 one finds binding data, which are given here for 3 molecules.

The test has as its target mGFP-H-rasG12V (UniProt P01112). The test can be described thus: co-IP; GFP pull-down: HEK cells cotransfected with mGFP-H-rasG12V and an ASPP2 construct (1:3), treated with 0.8 mM cross-linker dithiobis(succinimidyl-propionate) for 30 min before lysis (1% Triton, 150 mM NaCl); lysate on GFP beads (Chromotek) 2 h at 4°C; blot with anti-ASPP2 and anti-GFP.

Results are given in words; binding and its absence hold for the method and conditions named. In cells and extracts the contact can be indirect. Some binding calls cover weakened binding; strength is not graded here.

B1: ASPP2(1-360) (domain or fragment, UniProt Q13625 1-360)
chain: MMPMFLTVYLSNNEQHFTEVPVTPETICRDVVDLCKEPGESDCHLAEVWCGSERPVADNERMFDVLQRFGSQRNEVRFFLRHERPPGRDIVSGPRSQDPSLKRNGVKVPGEYRRKENGVNSPRMDLTLAELQEMASRQQQQIEAQQQLLATKEQRLKFLKQQDQRQQQQVAEQEKLKRLKEIAENQEAKLKKVRALKGHVEQKRLSNGKLVEEIEQMNNLFQQKQRELVLAVSKVEELTRQLEMLKNGRIDSHHDNQSAVAELDRLYKELQLRNKLNQEQNAKLQQQRECLNKRNSEVAVMDKRVNELRDRLWKKKAALQQKENLPVSSDGNLPQQAASAPSRVAAVGPYIQSSTMPRMP
Take B1: the binding result is “binds”.

B2: ASPP2(123-1128) (domain or fragment, UniProt Q13625 123-1128)
chain: RMDLTLAELQEMASRQQQQIEAQQQLLATKEQRLKFLKQQDQRQQQQVAEQEKLKRLKEIAENQEAKLKKVRALKGHVEQKRLSNGKLVEEIEQMNNLFQQKQRELVLAVSKVEELTRQLEMLKNGRIDSHHDNQSAVAELDRLYKELQLRNKLNQEQNAKLQQQRECLNKRNSEVAVMDKRVNELRDRLWKKKAALQQKENLPVSSDGNLPQQAASAPSRVAAVGPYIQSSTMPRMPSRPELLVKPALPDGSLVIQASEGPMKIQTLPNMRSGAASQTKGSKIHPVGPDWSPSNADLFPSQGSASVPQSTGNALDQVDDGEVPLREKEKKVRPFSMFDAVDQSNAPPSFGTLRKNQSSEDILRDAQVANKNVAKVPPPVPTKPKQINLPYFGQTNQPPSDIKPDGSSQQLSTVVPSMGTKPKPAGQQPRVLLSPSIPSVGQDQTLSPGSKQESPPAAAVRPFTPQPSKDTLLPPFRKPQTVAASSIYSMYTQQQAPGKNFQQAVQSALTKTHTRGPHFSSVYGKPVIAAAQNQQQHPENIYSNSQGKPGSPEPETEPVSSVQENHENERIPRPLSPTKLLPFLSNPYRNQSDADLEALRKKLSNAPRPLKKRSSITEPEGPNGPNIQKLLYQRTTIAAMETISVPSYPSKSASVTASSESPVEIQNPYLHVEPEKEVVSLVPESLSPEDVGNASTENSDMPAPSPGLDYEPEGVPDNSPNLQNNPEEPNPEAPHVLDVYLEEYPPYPPPPYPSGEPEGPGEDSVSMRPPEITGQVSLPPGKRTNLRKTGSERIAHGMRVKFNPLALLLDSSLEGEFDLVQRIIYEVDDPSLPNDEGITALHNAVCAGHTEIVKFLVQFGVNVNAADSDGWTPLHCAASCNNVQVCKFLVESGAAVFAMTYSDMQTAADKCEEMEEGYTQCSQFLYGVQEKMGIMNKGVIYALWDYEPQNDDELPMKEGDCMTIIHREDEDEIEWWWARLNDKEGYVPRNLLGLYPRIKPRQRSLA
On to B2, for which the binding result is “binds”.

B3: full-length ASPP2 (protein, UniProt Q13625 1-1128)
chain: MMPMFLTVYLSNNEQHFTEVPVTPETICRDVVDLCKEPGESDCHLAEVWCGSERPVADNERMFDVLQRFGSQRNEVRFFLRHERPPGRDIVSGPRSQDPSLKRNGVKVPGEYRRKENGVNSPRMDLTLAELQEMASRQQQQIEAQQQLLATKEQRLKFLKQQDQRQQQQVAEQEKLKRLKEIAENQEAKLKKVRALKGHVEQKRLSNGKLVEEIEQMNNLFQQKQRELVLAVSKVEELTRQLEMLKNGRIDSHHDNQSAVAELDRLYKELQLRNKLNQEQNAKLQQQRECLNKRNSEVAVMDKRVNELRDRLWKKKAALQQKENLPVSSDGNLPQQAASAPSRVAAVGPYIQSSTMPRMPSRPELLVKPALPDGSLVIQASEGPMKIQTLPNMRSGAASQTKGSKIHPVGPDWSPSNADLFPSQGSASVPQSTGNALDQVDDGEVPLREKEKKVRPFSMFDAVDQSNAPPSFGTLRKNQSSEDILRDAQVANKNVAKVPPPVPTKPKQINLPYFGQTNQPPSDIKPDGSSQQLSTVVPSMGTKPKPAGQQPRVLLSPSIPSVGQDQTLSPGSKQESPPAAAVRPFTPQPSKDTLLPPFRKPQTVAASSIYSMYTQQQAPGKNFQQAVQSALTKTHTRGPHFSSVYGKPVIAAAQNQQQHPENIYSNSQGKPGSPEPETEPVSSVQENHENERIPRPLSPTKLLPFLSNPYRNQSDADLEALRKKLSNAPRPLKKRSSITEPEGPNGPNIQKLLYQRTTIAAMETISVPSYPSKSASVTASSESPVEIQNPYLHVEPEKEVVSLVPESLSPEDVGNASTENSDMPAPSPGLDYEPEGVPDNSPNLQNNPEEPNPEAPHVLDVYLEEYPPYPPPPYPSGEPEGPGEDSVSMRPPEITGQVSLPPGKRTNLRKTGSERIAHGMRVKFNPLALLLDSSLEGEFDLVQRIIYEVDDPSLPNDEGITALHNAVCAGHTEIVKFLVQFGVNVNAADSDGWTPLHCAASCNNVQVCKFLVESGAAVFAMTYSDMQTAADKCEEMEEGYTQCSQFLYGVQEKMGIMNKGVIYALWDYEPQNDDELPMKEGDCMTIIHREDEDEIEWWWARLNDKEGYVPRNLLGLYPRIKPRQRSLA
On to B3, for which the binding result was “binds”.
